As a reminder, the Ki is a measure of affinity in units of concentration, obtained from inhibition or displacement.

The chains behind the UniProt entries cited, without tags or fusion partners. Where a name states a change or a piece, a line headed by the entry shows the natural chain unless it says otherwise.
UniProt P28593: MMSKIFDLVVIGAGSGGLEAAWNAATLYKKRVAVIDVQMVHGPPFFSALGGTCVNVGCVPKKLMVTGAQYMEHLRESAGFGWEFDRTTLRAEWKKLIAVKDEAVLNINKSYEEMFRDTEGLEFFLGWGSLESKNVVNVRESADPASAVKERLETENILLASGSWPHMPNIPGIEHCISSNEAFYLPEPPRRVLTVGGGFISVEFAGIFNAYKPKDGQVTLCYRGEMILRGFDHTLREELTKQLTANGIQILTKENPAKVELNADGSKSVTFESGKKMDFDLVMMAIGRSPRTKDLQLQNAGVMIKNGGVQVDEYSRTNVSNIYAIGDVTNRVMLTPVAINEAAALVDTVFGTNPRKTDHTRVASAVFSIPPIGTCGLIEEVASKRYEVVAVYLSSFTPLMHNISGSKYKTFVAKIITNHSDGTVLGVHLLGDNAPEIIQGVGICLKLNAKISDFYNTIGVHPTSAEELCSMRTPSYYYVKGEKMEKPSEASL

Test [1] has as its target T1, trypanothione reductase (TcTR) (Trypanosoma cruzi, UniProt P28593). The following applies: T(S)2 as substrate; reference [38]; cited from earlier work.
Test [2] addresses T1, trypanothione reductase (TcTR). Briefly: biochemical.

Read-outs that look alike come from different tables or passages of the source.

With `CN(C)CCCN1c2ccccc2CCc2ccc(Cl)cc21` [clomipramine], the Ki in test [1] is approximately 6.53 µM; in test [2], 8 ± 0.9 µM.
